PubChem BioAssay AID1159578 – Peter MacCallum Cancer Centre – 2015
The whole screen tested about 18,000 reagents; shown is a part drawn at random. Over the whole deposit, about 1,030 (5.7%) are marked active. 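Inactive calls also include pools with fewer than 3300 nuclei, whose migration was not assessed.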 The raw values are shown without normalisation. Entries without a mark were called inactive.

Purpose: 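siRNA pools altering how lymphatic endothelial cells close a scratch wound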 (primary screen)
System: human lymphatic endothelial cells
Knock-down reagent: siRNA pool against human genes, 40 nM
Timing: 48 h after transfection
Detection: 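High-content imaging of dye-stained cells in a scratch assay measures filled wound area and nuclei per well; duplicate means given as ratio to mock and robust z-score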
Scale: migration robust z-score: higher = faster migration into the scratch; migration relative to mock: higher = more scratch area covered than mock; nuclei per well: higher = more cells in the well
Hit rule: 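Pools averaging fewer than 3300 nuclei are never called; remaining pools count as changed when migration robust z lies outside -2 to 2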
Meaning of the calls: active = migration changed; inactive = no migration change, or too few cells

| gene symbol | migration robust z-score | migration class with cell-count check | migration relative to mock | nuclei per well, duplicate mean |
| --- | --- | --- | --- | --- |
| CLN5 (GeneID 1203) | 0.8 | migration z between -2 and 2; enough cells | 1.09 | 5981 |
| TMPRSS5 (GeneID 80975) | 0.88 | migration z between -2 and 2; enough cells | 0.97 | 5269 |
| FLNB (GeneID 2317) | -1.08 | migration z between -2 and 2; enough cells | 0.6 | 5336 |
| TRIM51G (GeneID 120824) | -3.06 (active) | migration z below -2; enough cells | 0.22 | 4336 |
| NFIL3 (GeneID 4783) | 0.73 | migration z between -2 and 2; enough cells | 0.94 | 5608 |
| MLC1 (GeneID 23209) | -0.52 | migration z between -2 and 2; enough cells | 0.7 | 5582 |
| RDH10 (GeneID 157506) | 0.99 | migration z between -2 and 2; enough cells | 1 | 5620 |
| PLXNA2 (GeneID 5362) | -1.23 | migration z between -2 and 2; enough cells | 0.57 | 5250 |
| PTPMT1 (GeneID 114971) | -0.42 | migration z between -2 and 2; enough cells | 0.72 | 6425 |
| ATP2A3 (GeneID 489) | -0.88 | migration z between -2 and 2; enough cells | 0.66 | 5842 |
| PRKAR1B (GeneID 5575) | -0.57 | migration z between -2 and 2; enough cells | 0.7 | 4827 |
| KCNC4 (GeneID 3749) | 0.18 | migration z between -2 and 2; enough cells | 0.84 | 5048 |
| EGLN1 (GeneID 54583) | -0.18 | migration z between -2 and 2; enough cells | 0.77 | 6273 |
| RASSF2 (GeneID 9770) | -0.9 | migration z between -2 and 2; enough cells | 0.65 | 4138 |
| TBX19 (GeneID 9095) | 1.02 | migration z between -2 and 2; enough cells | 1 | 6100 |
| C4orf17 (GeneID 84103) | 0.52 | migration z between -2 and 2; enough cells | 1.02 | 5190 |
| CACNB2 (GeneID 783) | 0.6 | migration z between -2 and 2; enough cells | 0.92 | 6096 |
| ABLIM2 (GeneID 84448) | -0.3 | migration z between -2 and 2; enough cells | 0.81 | 4742 |
| OLFM3 (GeneID 118427) | -0.47 | migration z between -2 and 2; enough cells | 0.77 | 4698 |
| FSAF1 (GeneID 128061) | -0.41 | migration z between -2 and 2; enough cells | 0.78 | 5466 |
| NOL9 (GeneID 79707) | 0.3 | migration z between -2 and 2; enough cells | 0.96 | 6971 |
| OTOR (GeneID 56914) | -0.88 | migration z between -2 and 2; enough cells | 0.66 | 5454 |
| ST3GAL3 (GeneID 6487) | -0.02 | migration z between -2 and 2; enough cells | 0.8 | 4204 |
| CEP57 (GeneID 9702) | -0.76 | migration z between -2 and 2; enough cells | 0.69 | 7304 |
| CRYGB (GeneID 1419) | 1.67 | migration z between -2 and 2; enough cells | 1.31 | 5833 |
| C1orf198 (GeneID 84886) | 0.56 | migration z between -2 and 2; enough cells | 1.03 | 5366 |
| HOATZ (GeneID 399949) | -0.26 | migration z between -2 and 2; enough cells | 0.82 | 6936 |
| LHFPL5 (GeneID 222662) | -1.56 | migration z between -2 and 2; enough cells | 0.48 | 5976 |
| EQTN (GeneID 54586) | 0.89 | migration z between -2 and 2; enough cells | 1.11 | 5492 |
| SAYSD1 (GeneID 55776) | -0.68 | migration z between -2 and 2; enough cells | 0.71 | 3764 |
| EFNA5 (GeneID 1946) | -0.06 | migration z between -2 and 2; enough cells | 0.8 | 4867 |
| N4BP2 (GeneID 55728) | 0.34 | migration z between -2 and 2; enough cells | 0.87 | 6484 |
| RIC1 (GeneID 57589) | -1.45 | migration z between -2 and 2; enough cells | 0.51 | 5438 |
| TMEM257 (retired record) (GeneID 9142) | 0.14 | migration z between -2 and 2; enough cells | 0.92 | 6644 |
| GCNT1 (GeneID 2650) | 0.13 | migration z between -2 and 2; enough cells | 0.83 | 5226 |
| DYNC2I1 (GeneID 55112) | 0.36 | migration z between -2 and 2; enough cells | 0.98 | 6256 |
| SSTR4 (GeneID 6754) | -0.94 | migration z between -2 and 2; enough cells | 0.62 | 7180 |
| ZNF615 (GeneID 284370) | 1.5 | migration z between -2 and 2; enough cells | 1.27 | 6674 |
| SERPINA3 (GeneID 12) | 0 | migration z between -2 and 2; enough cells | 0.8 | 5490 |
| ORC5 (GeneID 5001) | 0.96 | migration z between -2 and 2; enough cells | 1.13 | 6666 |
| FAR2 (GeneID 55711) | 0.88 | migration z between -2 and 2; enough cells | 1.12 | 6137 |
| CTBP1 (GeneID 1487) | -1.45 | migration z between -2 and 2; enough cells | 0.52 | 4887 |
| CAD (GeneID 790) | 0.08 | migration z between -2 and 2; enough cells | 0.82 | 6031 |
| UCP3 (GeneID 7352) | 0.1 | migration z between -2 and 2; enough cells | 0.82 | 7553 |
| PFKL (GeneID 5211) | 1.35 | migration z between -2 and 2; enough cells | 1.06 | 6474 |
| PGAM5 (GeneID 192111) | -6.2 (active) | migration z below -2; enough cells | -0.39 | 3378 |
| ZNF646 (GeneID 9726) | 0.78 | migration z between -2 and 2; enough cells | 1.09 | 5610 |
| VCPKMT (GeneID 79609) | -1.05 | migration z between -2 and 2; enough cells | 0.61 | 5640 |
| ZNF22 (GeneID 7570) | 1.94 | migration z between -2 and 2; enough cells | 1.39 | 6507 |
| ASPHD1 (GeneID 253982) | -0.54 | migration z between -2 and 2; enough cells | 0.74 | 8140 |
| DHTKD1 (GeneID 55526) | -0.18 | migration z between -2 and 2; enough cells | 0.77 | 6956 |
| ANTXR1 (GeneID 84168) | -0.38 | migration z between -2 and 2; enough cells | 0.78 | 6407 |
| SYN1 (GeneID 6853) | 0.42 | migration z between -2 and 2; enough cells | 0.88 | 5904 |
| TRAFD1 (GeneID 10906) | -1.27 | migration z between -2 and 2; enough cells | 0.56 | 6173 |
| GABRB2 (GeneID 2561) | -1.87 | migration z between -2 and 2; enough cells | 0.44 | 4249 |
| IL20RA (GeneID 53832) | 1.12 | migration z between -2 and 2; enough cells | 1.02 | 4982 |
| PRSS12 (GeneID 8492) | -0.34 | migration z between -2 and 2; enough cells | 0.74 | 5268 |
